Assay results taken from patent US20160074488A1.
Results are given in words; binding and its absence hold for the method and conditions named. Some entries that bind do so weakly or less than the wild type.

Biological target: T1, Q11 β-sheet fibrillizing peptide (assembled as Q11 nanofibers, gels or microgels)
T1 sequence (peptide): QQKFQFQFEQQ
Assay: fluorescence microscopy of Q11 microgels

binding: binds
B1: βTail-dsRED monomer (protein)
chain: MALKVELEKLKSELVVLHSHLEKLKSELGSGGGGSGGGGSGGGGGGGSGGGGSGGGGSGGGGSSDDNTEDVIKEFMQFKVRMEGSVNGHYFEIEGEGEGKPYEGTQTAKLQVTKGGPLPFAWDILSPQFQYGSKAYVKHPADIPDYMKLSFPEGFTWERSMNFEDGGVVEVQQDSSLQDGTFIYKVKFKGVNFPADGPVMQKKTAGWEPSTEKLYPQDGVLKGEISHALKLKDGGHYTCDFKTVYKAKKPVQLPGNHYVDSKLDITNHNEDYTVVEQYEHAEARHSGSQHHHHHH
